Experimental data published in patent publication US9877918B2, “Long-lasting controlled-release liposome composition and method for producing same” (TERUMO KABUSHIKI KAISHA, priority 2011, dated 2018).
Structures can show the parent of a compound that is named as a salt.

Test: Pharmacokinetics of DNP liposome, concentration of donepezil hydrochloride in plasma after subcutaneous administration
Settings: rat, SC 5 mg/kg as donepezil hydrochloride

## COc1cc2c(cc1OC)C(=O)C(CC1CCN(Cc3ccccc3)CC1)C2 (centres unmarked) [donepezil hydrochloride alone, Donepezil Hydrochloride]
  time of maximum in-blood concentration after administration: 0.5 h
48 hours after administration
  concentration of donepezil hydrochloride in blood after 48 hours: below the detection limit
